Test results taken from patent publication US11903397B2, “Hay preservative and methods for preservation of hay” (DANSTAR FERMENT AG, priority 2014, dated 2024).
Marks after values point to notes of the source that are not given here.

Test: Fermentation product of alfalfa hay (Example 2)

Compound: CCC(=O)O [BPA, Propionic Acid]
- pH (day 0): 6.07^c
- LA (day 90): 0.49 g/kg DM
- pH (day 90): 8.29^a
- LA (day 180): 0.17 g/kg DM
- pH (day 180): 7.80^a
